Laboratory results reported in PMC5004903.
Results are given in words; binding and its absence hold for the method and conditions named. In cells and extracts the contact can be indirect. Some binding calls cover weakened binding; strength is not graded here.

By UniProt entry, the sequences of proteins in these tests, tags left out.
UniProt Q61188: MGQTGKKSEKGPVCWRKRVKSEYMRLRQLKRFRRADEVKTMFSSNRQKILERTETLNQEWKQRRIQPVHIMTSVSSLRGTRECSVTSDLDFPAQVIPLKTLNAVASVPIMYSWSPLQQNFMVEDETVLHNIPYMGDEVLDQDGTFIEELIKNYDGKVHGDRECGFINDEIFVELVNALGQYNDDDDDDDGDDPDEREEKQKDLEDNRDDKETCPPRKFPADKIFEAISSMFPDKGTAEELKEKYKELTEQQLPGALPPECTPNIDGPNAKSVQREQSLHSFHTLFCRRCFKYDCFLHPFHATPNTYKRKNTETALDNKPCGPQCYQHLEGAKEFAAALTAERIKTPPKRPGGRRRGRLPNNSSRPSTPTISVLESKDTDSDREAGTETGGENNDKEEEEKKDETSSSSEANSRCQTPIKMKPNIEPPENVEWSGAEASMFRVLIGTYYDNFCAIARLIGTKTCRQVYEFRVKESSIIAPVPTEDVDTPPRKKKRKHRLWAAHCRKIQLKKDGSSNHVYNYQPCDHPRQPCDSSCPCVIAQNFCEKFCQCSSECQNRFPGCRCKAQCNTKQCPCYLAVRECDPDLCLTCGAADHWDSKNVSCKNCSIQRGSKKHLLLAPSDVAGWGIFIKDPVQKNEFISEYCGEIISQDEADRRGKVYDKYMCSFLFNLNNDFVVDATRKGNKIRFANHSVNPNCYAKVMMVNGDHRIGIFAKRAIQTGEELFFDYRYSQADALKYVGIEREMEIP
UniProt Q02395: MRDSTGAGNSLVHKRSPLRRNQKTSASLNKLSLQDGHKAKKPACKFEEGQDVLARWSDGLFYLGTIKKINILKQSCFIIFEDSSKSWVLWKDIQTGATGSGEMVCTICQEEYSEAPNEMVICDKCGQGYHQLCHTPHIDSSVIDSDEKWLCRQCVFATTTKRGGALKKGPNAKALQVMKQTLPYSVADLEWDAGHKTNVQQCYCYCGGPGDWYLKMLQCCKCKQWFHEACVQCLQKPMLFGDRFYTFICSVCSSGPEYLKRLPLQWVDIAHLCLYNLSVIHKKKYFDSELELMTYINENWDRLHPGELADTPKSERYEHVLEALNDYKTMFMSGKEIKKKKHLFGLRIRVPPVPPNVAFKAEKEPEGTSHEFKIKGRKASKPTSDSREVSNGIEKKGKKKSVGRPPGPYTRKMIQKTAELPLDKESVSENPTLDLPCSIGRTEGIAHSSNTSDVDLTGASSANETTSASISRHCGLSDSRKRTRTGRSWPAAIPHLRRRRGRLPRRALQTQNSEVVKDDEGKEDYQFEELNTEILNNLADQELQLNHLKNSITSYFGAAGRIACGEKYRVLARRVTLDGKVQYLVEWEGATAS

Columns and labels:
Experiment in all cases: co-IP; immunoprecipitation of endogenous EZH2, JARID2 and AEBP2 in E14 mESCs, immunoblot
[1] = molecular target: T1, JARID2 (endogenous) (mouse (endogenous in E14 mESCs)) (UniProt Q62315)
T1 sequence: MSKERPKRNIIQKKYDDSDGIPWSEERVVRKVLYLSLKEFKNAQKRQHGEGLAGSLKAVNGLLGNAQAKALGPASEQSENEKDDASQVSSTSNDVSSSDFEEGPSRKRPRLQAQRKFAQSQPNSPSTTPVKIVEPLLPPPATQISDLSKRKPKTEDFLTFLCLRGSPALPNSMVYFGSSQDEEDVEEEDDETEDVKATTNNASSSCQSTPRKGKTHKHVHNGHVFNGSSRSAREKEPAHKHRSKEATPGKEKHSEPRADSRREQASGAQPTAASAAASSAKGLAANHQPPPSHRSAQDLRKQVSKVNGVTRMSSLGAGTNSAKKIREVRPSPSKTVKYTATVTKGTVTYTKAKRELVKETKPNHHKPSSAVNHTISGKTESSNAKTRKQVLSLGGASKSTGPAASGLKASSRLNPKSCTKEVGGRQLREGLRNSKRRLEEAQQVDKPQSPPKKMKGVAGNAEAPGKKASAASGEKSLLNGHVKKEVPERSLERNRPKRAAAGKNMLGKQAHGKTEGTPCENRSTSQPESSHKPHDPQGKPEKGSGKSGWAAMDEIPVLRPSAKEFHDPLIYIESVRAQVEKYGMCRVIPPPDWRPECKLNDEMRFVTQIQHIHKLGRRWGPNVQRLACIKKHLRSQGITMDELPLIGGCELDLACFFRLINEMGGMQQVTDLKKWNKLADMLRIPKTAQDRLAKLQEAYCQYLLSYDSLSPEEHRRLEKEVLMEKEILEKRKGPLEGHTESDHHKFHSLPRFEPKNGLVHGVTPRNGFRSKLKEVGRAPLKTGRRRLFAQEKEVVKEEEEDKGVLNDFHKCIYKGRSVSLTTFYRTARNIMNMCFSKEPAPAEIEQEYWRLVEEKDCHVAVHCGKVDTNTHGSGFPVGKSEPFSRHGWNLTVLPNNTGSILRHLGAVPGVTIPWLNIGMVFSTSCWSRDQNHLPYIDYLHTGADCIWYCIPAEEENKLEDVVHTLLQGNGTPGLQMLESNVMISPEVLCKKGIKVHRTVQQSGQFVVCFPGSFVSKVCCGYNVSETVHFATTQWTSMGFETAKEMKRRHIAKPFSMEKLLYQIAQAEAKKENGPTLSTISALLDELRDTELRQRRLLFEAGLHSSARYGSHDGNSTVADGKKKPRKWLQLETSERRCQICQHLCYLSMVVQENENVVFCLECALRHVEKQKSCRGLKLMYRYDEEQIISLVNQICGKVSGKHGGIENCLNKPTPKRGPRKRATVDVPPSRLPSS

[2] = molecular target: T2, AEBP2 (endogenous) (mouse (endogenous in E14 mESCs)) (UniProt Q9Z248)
T2 sequence: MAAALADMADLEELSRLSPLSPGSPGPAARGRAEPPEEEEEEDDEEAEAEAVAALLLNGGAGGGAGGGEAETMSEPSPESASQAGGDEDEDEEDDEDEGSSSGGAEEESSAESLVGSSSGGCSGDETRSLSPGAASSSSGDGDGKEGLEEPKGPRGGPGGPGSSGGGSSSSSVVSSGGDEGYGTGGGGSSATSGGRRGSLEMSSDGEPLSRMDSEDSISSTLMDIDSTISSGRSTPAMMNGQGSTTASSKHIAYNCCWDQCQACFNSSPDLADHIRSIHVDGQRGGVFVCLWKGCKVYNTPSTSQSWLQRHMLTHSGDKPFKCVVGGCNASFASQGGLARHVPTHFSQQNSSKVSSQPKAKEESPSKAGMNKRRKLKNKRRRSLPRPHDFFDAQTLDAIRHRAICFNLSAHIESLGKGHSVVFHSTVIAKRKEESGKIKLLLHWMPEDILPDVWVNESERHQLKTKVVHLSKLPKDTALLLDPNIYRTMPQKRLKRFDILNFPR

[3] = molecular target: EZH2 (endogenous) (mouse (endogenous in E14 mESCs)) (UniProt Q61188)

PCL2 (MTF2), endogenous (from UniProt Q02395 1-593)
binding [1]: binds weakly | binding [2]: no binding | binding [3]: binds
